This is an account of results in US20230257703A1, “NANOSCALE POLYMERIC MICELLAR SCAFFOLDS FOR RAPID AND EFFICIENT ANTIBODY PRODUCTION” (Iowa State University Research Foundation, Inc., priority 2020, published 2023).

The test system of the series is B cells from splenic cells of wild-type (WT) mice. In words: CFSE B cell proliferation and viability, splenic cells of WT mice. Type of series: cell-based. As to conditions: groups alone.

For hen egg white lysozyme [HEL], the “statistical significance from medium only control, FIG. 4” value is reported as “not significant from the medium only control”.

B1: ovalbumin (protein, UniProt P01012 2-386, looked up)
Ovalbumin: GSIGAASMEFCFDVFKELKVHHANENIFYCPIAIMSALAMVYLGAKDSTRTQINKVVRFDKLPGFGDSIEAQCGTSVNVHSSLRDILNQITKPNDVYSFSLASRLYAEERYPILPEYLQCVKELYRGGLEPINFQTAADQARELINSWVESQTNGIIRNVLQPSSVDSQTAMVLVNAIVFKGLWEKAFKDEDTQAMPFRVTEQESKPVQMMYQIGLFRVASMASEKMKILELPFASGTMSMLVLLPDEVSGLEQLESIINFEKLTEWTSSNVMEERKIKVYLPRMKMEEKYNLTSVLMAMGITDVFSSSANLSGISSAESLKISQAVHAAHAEINEAGREVVGSAEAGVDAASVSEEFRADHPFLFCIKHIATNAVLFFGRCVSP
notes: model antigen
Take B1: the “statistical significance from medium only control, FIG. 4” value is listed as “not significant from the medium only control”.
